This is one part of the list.
Experiments:
Assay in all cases: glycan array binding signal (z-score within array); higher = stronger binding
Details in all cases: glycan notation: IUPAC condensed, linker removed
[1] = molecular target: Fuc(a1-2)Gal(b1-4)[Fuc(a1-3)]GlcNAc(b1-2)Man(a1-3)[Fuc(a1-2)Gal(b1-4)[Fuc(a1-3)]GlcNAc(b1-2)Man(a1-6)]Man(b1-4)GlcNAc(b1-4)[Fuc(a1-6)]GlcNAc
Summary of the method: (§1)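 Glycan array data were curated from 3228 arrays in the Consortium for Functional Glycomics database and kept only where the protein sequence was available. Glycan names were converted to IUPAC-condensed notation, and columns mapping to the same glycan were averaged. The binding signal is a within-array Z-score, averaged across arrays of the same protein sequence at different concentrations or buffers and across linkers. Negative Z-scores can be read as non-binding.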

[2] = molecular target: Fuc(a1-2)Gal(b1-4)[Fuc(a1-3)]GlcNAc(b1-2)[Fuc(a1-2)Gal(b1-4)[Fuc(a1-3)]GlcNAc(b1-4)]Man(a1-3)[Fuc(a1-2)Gal(b1-4)[Fuc(a1-3)]GlcNAc(b1-2)Man(a1-6)]Man(b1-4)GlcNAc(b1-4)GlcNAc
Summary of the method: as §1

[3] = molecular target: Fuc(a1-2)Gal(b1-4)[Fuc(a1-3)]GlcNAc(b1-3)Gal(b1-4)[Fuc(a1-3)]GlcNAc
Summary of the method: as §1

[4] = molecular target: Fuc(a1-2)Gal(b1-4)[Fuc(a1-3)]GlcNAc(b1-3)Gal(b1-4)[Fuc(a1-3)]GlcNAc(b1-3)Gal(b1-4)[Fuc(a1-3)]GlcNAc
Summary of the method: as §1

[5] = molecular target: Fuc(a1-2)Gal(b1-4)[Fuc(a1-3)]GlcNAc(b1-3)GalNAc
Summary of the method: as §1

[6] = molecular target: Fuc(a1-2)Gal(b1-4)[Fuc(a1-3)]GlcNAc(b1-3)[Neu5Ac(a2-6)Gal(b1-4)GlcNAc(b1-6)]Gal(b1-4)Glc
Summary of the method: as §1

[7] = molecular target: Fuc(a1-2)Gal3S(b1-4)GlcNAc
Summary of the method: as §1

[8] = molecular target: Fuc(a1-2)Gal6S(b1-3)GlcNAc
Summary of the method: as §1

[9] = molecular target: Fuc(a1-2)Gal6S(b1-3)GlcNAc6S
Summary of the method: as §1

Fuc(a1-2)Gal6S(b1-4)Glc = molecular target: Fuc(a1-2)Gal6S(b1-4)Glc
Summary of the method: as §1

[10] = molecular target: Fuc(a1-2)Gal6S(b1-4)Glc6S
Summary of the method: as §1

Fuc(a1-2)[Gal(a1-3)]Gal = molecular target: Fuc(a1-2)[Gal(a1-3)]Gal
Summary of the method: as §1

[11] = molecular target: Fuc(a1-2)[Gal(a1-3)]Gal(b1-3)GalNAc
Summary of the method: as §1

[12] = molecular target: Fuc(a1-2)[Gal(a1-3)]Gal(b1-3)GalNAc(b1-3)Gal(a1-4)Gal(b1-4)Glc
Summary of the method: as §1

[13] = molecular target: Fuc(a1-2)[Gal(a1-3)]Gal(b1-3)GlcNAc
Summary of the method: as §1

[14] = molecular target: Fuc(a1-2)[Gal(a1-3)]Gal(b1-3)GlcNAc(b1-2)Man(a1-3)[Fuc(a1-2)[Gal(a1-3)]Gal(b1-3)GlcNAc(b1-2)Man(a1-6)]Man(b1-4)GlcNAc(b1-4)GlcNAc
Summary of the method: as §1

[15] = molecular target: Fuc(a1-2)[Gal(a1-3)]Gal(b1-3)GlcNAc(b1-2)Man(a1-3)[Fuc(a1-2)[Gal(a1-3)]Gal(b1-3)GlcNAc(b1-2)Man(a1-6)]Man(b1-4)GlcNAc(b1-4)[Fuc(a1-6)]GlcNAc
Summary of the method: as §1

[16] = molecular target: Fuc(a1-2)[Gal(a1-3)]Gal(b1-3)GlcNAc(b1-3)GalNAc
Summary of the method: as §1

[17] = molecular target: Fuc(a1-2)[Gal(a1-3)]Gal(b1-3)GlcNAc(b1-6)GalNAc
Summary of the method: as §1

[18] = molecular target: Fuc(a1-2)[Gal(a1-3)]Gal(b1-4)Glc
Summary of the method: as §1

[19] = molecular target: Fuc(a1-2)[Gal(a1-3)]Gal(b1-4)GlcNAc
Summary of the method: as §1

[20] = molecular target: Fuc(a1-2)[Gal(a1-3)]Gal(b1-4)GlcNAc(b1-2)Man
Summary of the method: as §1

[21] = molecular target: Fuc(a1-2)[Gal(a1-3)]Gal(b1-4)GlcNAc(b1-2)Man(a1-3)[Fuc(a1-2)[Gal(a1-3)]Gal(b1-4)GlcNAc(b1-2)Man(a1-6)]Man(b1-4)GlcNAc(b1-4)GlcNAc
Summary of the method: as §1

[22] = molecular target: Fuc(a1-2)[Gal(a1-3)]Gal(b1-4)GlcNAc(b1-2)Man(a1-3)[Fuc(a1-2)[Gal(a1-3)]Gal(b1-4)GlcNAc(b1-2)Man(a1-6)]Man(b1-4)GlcNAc(b1-4)[Fuc(a1-6)]GlcNAc
Summary of the method: as §1

[23] = molecular target: Fuc(a1-2)[Gal(a1-3)]Gal(b1-4)GlcNAc(b1-3)GalNAc
Summary of the method: as §1

[24] = molecular target: Fuc(a1-2)[Gal(a1-3)]Gal(b1-4)GlcNAc(b1-3)[Fuc(a1-2)[Gal(a1-3)]Gal(b1-4)GlcNAc(b1-6)]GalNAc
Summary of the method: as §1

[25] = molecular target: Fuc(a1-2)[Gal(a1-3)]Gal(b1-4)GlcNAc(b1-6)GalNAc
Summary of the method: as §1

[26] = molecular target: Fuc(a1-2)[Gal(a1-3)]Gal(b1-4)[Fuc(a1-3)]Glc
Summary of the method: as §1

[27] = molecular target: Fuc(a1-2)[Gal(a1-3)]Gal(b1-4)[Fuc(a1-3)]GlcNAc
Summary of the method: as §1

[28] = molecular target: Fuc(a1-2)[Gal(a1-3)]Gal(b1-4)[Fuc(a1-3)]GlcNAc(b1-3)GalNAc
Summary of the method: as §1

[29] = molecular target: Fuc(a1-2)[Gal(a1-4)]Gal(b1-4)GlcNAc
Summary of the method: as §1

[30] = molecular target: Fuc(a1-2)[GalNAc(a1-3)]Gal
Summary of the method: as §1

[31] = molecular target: Fuc(a1-2)[GalNAc(a1-3)]Gal(b1-3)GalNAc(a1-3)[Fuc(a1-2)]Gal(b1-4)GlcNAc
Summary of the method: as §1

[32] = molecular target: Fuc(a1-2)[GalNAc(a1-3)]Gal(b1-3)GalNAc(b1-3)Gal(a1-4)Gal(b1-4)Glc
Summary of the method: as §1

[33] = molecular target: Fuc(a1-2)[GalNAc(a1-3)]Gal(b1-3)GlcNAc
Summary of the method: as §1

[34] = molecular target: Fuc(a1-2)[GalNAc(a1-3)]Gal(b1-3)GlcNAc(b1-2)Man(a1-3)[Fuc(a1-2)[GalNAc(a1-3)]Gal(b1-3)GlcNAc(b1-2)Man(a1-6)]Man(b1-4)GlcNAc(b1-4)GlcNAc
Summary of the method: as §1

[35] = molecular target: Fuc(a1-2)[GalNAc(a1-3)]Gal(b1-3)GlcNAc(b1-2)Man(a1-3)[Fuc(a1-2)[GalNAc(a1-3)]Gal(b1-3)GlcNAc(b1-2)Man(a1-6)]Man(b1-4)GlcNAc(b1-4)[Fuc(a1-6)]GlcNAc
Summary of the method: as §1

[36] = molecular target: Fuc(a1-2)[GalNAc(a1-3)]Gal(b1-3)GlcNAc(b1-3)GalNAc
Summary of the method: as §1

B1: Sp8391B-bot-388-20-388 (Bacteroides ovatus) (protein)
chain: GCQNNDENEQHYDNKLFISASNFTKEILFKAGDTNVETGLSVAIAKPEEHDIKVTMSPAPELLSTYKLAYYDETAVLLSEEHYSMPETSTTIKSGSIVSPELPIEFINTGELDIKTTYVLPVTIKSVEGIGVLQSAKTYYYVFRGASLINVVCNISRNRAYPDFKNDSKFNNLTENTMEILFKANSFPNTLNTLMGIESNYLLRIGDATIPNNQLQVATSVNNCTSADLQLESGKWYHVAVAFNKGNVKVYINGVEKLSGSTGKSSVSLGAKHTNEEDGSRCFWVGYSYKDDRYFDGVVSEVRIWNRALTAEEIQATNHFYTIEPESEGLIAYWKFDEGSGTVAKDYSVSGYDLTIEKEPKWESVSLPQ
glycan array binding signal (z-score) [1]: -0.325
glycan array binding signal (z-score) [2]: 0.302
glycan array binding signal (z-score) [3]: -0.681
glycan array binding signal (z-score) [4]: 0.611
glycan array binding signal (z-score) [5]: 0.086
glycan array binding signal (z-score) [6]: 0.719
glycan array binding signal (z-score) [7]: -0.05
glycan array binding signal (z-score) [8]: 0.457
glycan array binding signal (z-score) [9]: -0.154
glycan array binding signal (z-score) (Fuc(a1-2)Gal6S(b1-4)Glc): -0.727
glycan array binding signal (z-score) [10]: -0.797
glycan array binding signal (z-score) (Fuc(a1-2)[Gal(a1-3)]Gal): -0.086
glycan array binding signal (z-score) [11]: 0.904
glycan array binding signal (z-score) [12]: 0.514
glycan array binding signal (z-score) [13]: -0.602
glycan array binding signal (z-score) [14]: 0.366
glycan array binding signal (z-score) [15]: -0.214
glycan array binding signal (z-score) [16]: 0.054
glycan array binding signal (z-score) [17]: -0.779
glycan array binding signal (z-score) [18]: 0.106
glycan array binding signal (z-score) [19]: -0.199
glycan array binding signal (z-score) [20]: 0.057
glycan array binding signal (z-score) [21]: 0.64
glycan array binding signal (z-score) [22]: 0.064
glycan array binding signal (z-score) [23]: -0.166
glycan array binding signal (z-score) [24]: 1.3
glycan array binding signal (z-score) [25]: -0.541
glycan array binding signal (z-score) [26]: -0.854
glycan array binding signal (z-score) [27]: -0.22
glycan array binding signal (z-score) [28]: -0.548
glycan array binding signal (z-score) [29]: 1.12
glycan array binding signal (z-score) [30]: -0.718
glycan array binding signal (z-score) [31]: -0.253
glycan array binding signal (z-score) [32]: 0.126
glycan array binding signal (z-score) [33]: -0.332
glycan array binding signal (z-score) [34]: 0.439
glycan array binding signal (z-score) [35]: -0.402
glycan array binding signal (z-score) [36]: -0.474
